Assay results from patent US20170355770A1 (ASKGENE PHARMA, published 2017).
Changes are numbered by the printed parent chain. Results are given in words; binding and its absence hold for the method and conditions named. Some entries that bind do so weakly or less than the wild type.

Columns and labels:
[1] = target: cynomolgus PD-L1-his (cynomolgus) (UniProt G7PSE7); experiment: ELISA, coated cynomolgus PD-L1-his
[2] = target: cynomolgus PD-L1-his (cynomolgus) (UniProt G7PSE7); experiment: ELISA on coated cynomolgus PD-L1-his, purified chimeric antibody [panel Cynomolgus PDL1-his ELISA]

B1: chimeric anti-PD-L1 antibody 116F3 (antibody, V domains shown)
VH: CQSVKESEGGLFKPTDTLTLTCTVSGIDLSSISIGWVRQAPGNGLEWIGTISDSGSAYYASWAKSRSTITRNTNENTVTLKMTSLTAADTASYFCAKEILYYGMDLWGPGTLVTVSS
VL: DVVMTQTPASVSGAVGGTVTIKCQASEDIESYLAWYQQKPGQPPKLLIYAASNLEPGVPSRFKGSRSGTEYTLTITDLECDDAATYHCQATYGSTSSSDYGNAFGGGTKVVVVR
binding [1]: binds
binding [2]: binds

B2: chimeric anti-PD-L1 antibody 113F1 (antibody, V domains shown)
VH: B1 VH with S33A, G35S, S52N, D53S, S54Y, A57T, K64Q, L106V
VL: DVVMTQTPASVEAAVGGTVTIKCQASQSISSYLAWYQQKPGQPPKLLIYAASNLESGVPSRFKGSGSGTEYTLTISDLECDDAATYYCQSTYGTTSTSDYGNAFGGGTKVVVVR
binding [1]: binds
binding [2]: binds

B3: chimeric anti-PD-L1 antibody 110B4 (antibody, V domains shown)
VH: B1 VH with T23K, G35S, T50V, S52N, D53S, S54Y, S56N, A57T, S92T
VL: DVVMTQTPASVEAAVGGTVTIKCQASQSISSYFSWYQQKPGQRPKLLIYDASNLESGVPSRFKGSRSGTEYTLTISDLEWDDAATYYCQCTYGSTSSSNYGNNFGGGTKVVVVR
binding [1]: binds

B4: chimeric anti-PD-L1 antibody 115E2 (antibody, V domains shown)
VH: B1 VH with T15M, S30G, I32V, S33A, G35S, N43K, S52G, D53S, E75L, L106R
VL: B2 VL with A14S, K22N, S56P, Y71F, D81A, S90A, T94S, T97S
binding [1]: binds

B5: chimeric anti-PD-L1 antibody 115C1 (antibody, V domains shown)
VH: CQSVKESEGGLFKPTDTLTLTCTVSGFSLSSVAVSWVRQAPGKGLEWIGTISYTGNTYYASWAKSRSTITRNTNENTVTLKMPSLTVADTATYFCAKEILYYGMDFWGPGTLVTVSS
VL: B2 VL with V2I, A9S, E12S, K22N, A50G, E70D, Y71F, D81A, T94S
binding [1]: binds

B6: chimeric anti-PD-L1 antibody 111H2 (antibody, V domains shown)
VH: QEQLVESGGGLVQPGGTLKLSCKGSGFDLSSNAMCWVRQAPGKGLEWIGCIVYGNCYYASWVNGRFTISSDNAQSSVDLQLNSLTAADTATYFCARDPAGSSVYTGGFNIWGPGTLVTVSS
VL: AIDMTQTPSPVSAAVGDTVTINCQASENIYSFLAWYQQKPGHSPKPLIYFASKLASGVPSRFKGSGSGTQFTLTISDVQCDDAATYYCQQTVSYKNADTAFGGGTKVVVVR
notes: also called chimeric anti-PD-L1 111H2 antibody
binding [1]: binds

B7: chimeric anti-PD-L1 antibody 110H8 (antibody, V domains shown)
VH: B1 VH with I32V, G35S, S52G, D53A, S65R, E75L
VL: B2 VL with S31N, P43R, S56P, S76T, Y87H, S90C, T94S, T97S
binding [1]: binds
